± gives the standard deviation of the averaged measurements. The list shows a part of the results, in another mix than the full data.
Key:
Test in all cases: NP40-soluble protein abundance relative to vehicle (solubility fold change) (ratio); higher = more soluble protein in presence of ATP
[1] = molecular target: T1, E9PFB9 and related entries (UniProt Q5T9S5)
T1 sequence (whole entry): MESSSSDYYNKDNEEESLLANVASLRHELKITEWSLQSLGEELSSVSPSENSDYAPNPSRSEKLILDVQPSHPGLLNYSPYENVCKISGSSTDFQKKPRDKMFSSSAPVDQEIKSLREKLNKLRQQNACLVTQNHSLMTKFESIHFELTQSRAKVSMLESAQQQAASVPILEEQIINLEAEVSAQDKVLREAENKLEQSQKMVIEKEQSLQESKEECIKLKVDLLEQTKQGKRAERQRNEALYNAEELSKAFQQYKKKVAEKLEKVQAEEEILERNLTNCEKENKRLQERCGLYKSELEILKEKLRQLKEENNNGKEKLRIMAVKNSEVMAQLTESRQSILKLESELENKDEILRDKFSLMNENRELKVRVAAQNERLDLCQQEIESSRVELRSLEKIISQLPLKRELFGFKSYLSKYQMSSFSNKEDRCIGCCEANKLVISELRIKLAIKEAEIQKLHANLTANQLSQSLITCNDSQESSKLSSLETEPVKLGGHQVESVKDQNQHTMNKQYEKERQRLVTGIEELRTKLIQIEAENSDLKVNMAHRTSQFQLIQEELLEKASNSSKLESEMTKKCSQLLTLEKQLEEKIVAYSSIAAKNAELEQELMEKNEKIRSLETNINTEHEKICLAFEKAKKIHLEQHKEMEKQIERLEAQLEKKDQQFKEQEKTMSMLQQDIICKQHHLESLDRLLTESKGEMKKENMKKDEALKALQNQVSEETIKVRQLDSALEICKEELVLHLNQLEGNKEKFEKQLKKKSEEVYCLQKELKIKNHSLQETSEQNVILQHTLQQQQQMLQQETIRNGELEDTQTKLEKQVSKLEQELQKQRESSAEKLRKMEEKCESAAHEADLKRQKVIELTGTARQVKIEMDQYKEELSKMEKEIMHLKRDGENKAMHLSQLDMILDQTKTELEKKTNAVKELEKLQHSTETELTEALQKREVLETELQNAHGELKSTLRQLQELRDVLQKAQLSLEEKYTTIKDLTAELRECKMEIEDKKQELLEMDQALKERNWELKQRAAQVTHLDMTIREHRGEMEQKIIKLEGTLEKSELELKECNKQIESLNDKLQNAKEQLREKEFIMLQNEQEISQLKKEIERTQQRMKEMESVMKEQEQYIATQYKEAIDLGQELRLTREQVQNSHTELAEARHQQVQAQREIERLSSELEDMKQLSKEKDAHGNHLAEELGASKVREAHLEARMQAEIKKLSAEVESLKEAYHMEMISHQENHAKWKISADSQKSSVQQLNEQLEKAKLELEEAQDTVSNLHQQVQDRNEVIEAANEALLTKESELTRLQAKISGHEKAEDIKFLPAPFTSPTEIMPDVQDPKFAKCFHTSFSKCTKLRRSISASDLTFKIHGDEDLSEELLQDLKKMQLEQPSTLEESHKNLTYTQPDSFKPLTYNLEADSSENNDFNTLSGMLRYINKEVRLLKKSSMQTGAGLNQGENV
Summary of the method: (§1)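 Jurkat crude lysate prepared with a Dounce homogeniser was treated at eight concentrations spanning 0.1 to 10 mM, 10 min at room temperature then 3 min at 37 °C. Solubilisation with 0.8% NP40 and benzonase and ultracentrifugation preceded TMT labelling of the supernatant for LC-MS/MS. Fold change against the detergent-processed vehicle was determined per replicate from vsn-normalised intensities, across three independent experiments.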

[2] = molecular target: T2, E9PK80 and related entries (UniProt Q9NTG7)
T2 sequence (whole entry): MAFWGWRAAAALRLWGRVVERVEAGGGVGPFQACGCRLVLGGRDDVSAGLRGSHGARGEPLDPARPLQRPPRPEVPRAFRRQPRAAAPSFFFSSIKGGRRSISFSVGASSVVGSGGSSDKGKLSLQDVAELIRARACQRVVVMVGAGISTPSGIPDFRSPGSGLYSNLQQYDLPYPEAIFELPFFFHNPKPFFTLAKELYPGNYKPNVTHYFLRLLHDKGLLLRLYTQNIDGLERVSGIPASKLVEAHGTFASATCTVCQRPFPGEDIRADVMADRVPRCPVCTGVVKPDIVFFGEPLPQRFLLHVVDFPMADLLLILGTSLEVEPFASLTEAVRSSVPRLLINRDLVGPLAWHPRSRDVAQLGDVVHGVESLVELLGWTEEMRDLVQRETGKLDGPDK
Summary of the method: as §1

[3] = molecular target: T3, E9PNW4 and related entries (UniProt P13987)
T3 sequence (whole entry): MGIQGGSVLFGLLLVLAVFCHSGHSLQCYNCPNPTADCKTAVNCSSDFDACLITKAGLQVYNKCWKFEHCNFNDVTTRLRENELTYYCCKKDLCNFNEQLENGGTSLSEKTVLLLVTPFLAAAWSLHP
Summary of the method: as §1

[4] = molecular target: T4, E9PS17 and related entries (UniProt Q96KG9)
T4 sequence (whole entry): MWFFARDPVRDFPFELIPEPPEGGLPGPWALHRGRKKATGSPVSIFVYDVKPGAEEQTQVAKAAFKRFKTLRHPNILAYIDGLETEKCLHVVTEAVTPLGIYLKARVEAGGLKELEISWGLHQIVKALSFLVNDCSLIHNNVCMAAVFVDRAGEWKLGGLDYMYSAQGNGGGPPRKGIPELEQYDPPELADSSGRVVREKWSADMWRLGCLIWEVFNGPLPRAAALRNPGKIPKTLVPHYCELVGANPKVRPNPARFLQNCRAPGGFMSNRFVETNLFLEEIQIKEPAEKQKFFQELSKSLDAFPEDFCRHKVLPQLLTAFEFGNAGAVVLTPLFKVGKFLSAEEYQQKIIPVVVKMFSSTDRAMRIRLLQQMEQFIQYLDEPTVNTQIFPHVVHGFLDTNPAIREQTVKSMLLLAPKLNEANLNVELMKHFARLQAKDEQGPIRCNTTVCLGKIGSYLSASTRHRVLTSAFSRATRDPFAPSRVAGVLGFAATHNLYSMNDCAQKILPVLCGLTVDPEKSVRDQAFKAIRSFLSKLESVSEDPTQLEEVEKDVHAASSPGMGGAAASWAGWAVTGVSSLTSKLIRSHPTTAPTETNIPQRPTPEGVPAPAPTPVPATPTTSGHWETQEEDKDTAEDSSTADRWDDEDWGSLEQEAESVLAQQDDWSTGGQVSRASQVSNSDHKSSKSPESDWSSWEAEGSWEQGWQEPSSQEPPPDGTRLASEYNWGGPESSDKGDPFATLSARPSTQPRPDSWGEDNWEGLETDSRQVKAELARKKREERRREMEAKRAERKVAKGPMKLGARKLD
Summary of the method: as §1

Nc1ncnc2c1ncn2[C@@H]1O[C@H](COP(=O)(O)OP(=O)(O)OP(=O)(O)O)[C@@H](O)[C@H]1O [adenosine triphosphate]
NP40-soluble protein abundance ([1]; concentration: 6mM): 1.03 ± 0.11 | NP40-soluble protein abundance ([1]; concentration: 8mM): 0.919 ± 0.084 | NP40-soluble protein abundance ([1]; concentration: 10mM): 1.01 ± 0.12 | NP40-soluble protein abundance ([2]; concentration: 1mM): 0.94 ± 0.089 | NP40-soluble protein abundance ([2]; concentration: 2mM): 0.958 ± 0.046 | NP40-soluble protein abundance ([2]; concentration: 4mM): 0.944 ± 0.055 | NP40-soluble protein abundance ([2]; concentration: 6mM): 0.965 ± 0.066 | NP40-soluble protein abundance ([2]; concentration: 8mM): 0.861 ± 0.075 | NP40-soluble protein abundance ([2]; concentration: 10mM): 0.927 ± 0.023 | NP40-soluble protein abundance ([3]; concentration: 1mM): 0.968 ± 0.097 | NP40-soluble protein abundance ([3]; concentration: 2mM): 0.881 ± 0.065 | NP40-soluble protein abundance ([3]; concentration: 4mM): 0.93 ± 0.072 | NP40-soluble protein abundance ([3]; concentration: 6mM): 0.978 ± 0.11 | NP40-soluble protein abundance ([3]; concentration: 8mM): 0.928 ± 0.061 | NP40-soluble protein abundance ([3]; concentration: 10mM): 0.845 ± 0.13 | NP40-soluble protein abundance ([4]; concentration: 1mM): 0.978 ± 0.047 | NP40-soluble protein abundance ([4]; concentration: 2mM): 0.979 ± 0.041 | NP40-soluble protein abundance ([4]; concentration: 4mM): 0.983 ± 0.016 | NP40-soluble protein abundance ([4]; concentration: 6mM): 0.928 ± 0.053
